# Literature values, collected in patent publication US20070112050A1, “HMGCoA reductase inhibitor combinations and uses thereof” (pSivida Inc., priority 2005, published 2007).
# At least one read-out could not be matched to a standard name with certainty.
# Conditions: compared within the class
smiles,measurement,value
CCCc1nc2c(C)cc(-c3nc4ccccc4n3C)cc2n1Cc1ccc(-c2ccccc2C(=O)O)cc1 [telmisartan],"plasma half-life, rank among angiotensin receptor blockers",longest half-life
